Test results taken from PubChem BioAssay AID587 (National Center for Advancing Translational Sciences (NCATS), 2007).
Hit rate of the full screen: of about 59,000 compounds, about 35 (0.06%) were called active. This list was built around the results that the source calls inconclusive (neither active nor inactive); the mix of calls is not that of the screen. Rule as the data show it: active = max dye-equivalent concentration above about 10 nM; inconclusive = between about 1.1 nM and that limit; inactive = weaker than that.

Experiment: qHTS Assay for Spectroscopic Profiling in Texas Red Spectral Region
Conditions: Compound fluorescence, Texas Red channel, 547/618 nm; stronger effect = higher value
From the text: NIH Molecular Libraries Screening Centers Network [MLSCN] NIH Chemical Genomics Center [NCGC] […] Occasionally, the artifactual effect may originate from the compound#s own spectral or other biophysical properties which generally tend to track its assay concentration. Pre-screening/profiling the library with respect to the compounds# spectral properties should help one exclude false positives early on. While the most informative fluorescent profiling data set is obtained by performing a full excitation and emission scan of each well by using a monochromator-based plate reader, such an approach is practical only on a very limited scale as scanning each well requires long time. An alternative approach, applied here, is to perform plate reader scans using selected excitation and emission wavelength pairs to generate a multidimensional relational database that correlates compound concentration and the respective relative fluorescence intensity at a given wavelength set. A standard curve of Texas Red (TR) present on each plate as six-point concentration series, was used to compute a normalized fluorescence response, termed dye-equivalent concentration, for each compound at each concentration.
NCGC Assay Protocol Summary: Buffer: 100 mM Tris buffer, pH 8.0 Dye standard plate: The wells in columns 1 through 4 of a Kalypsys polypropylene 1536-well compound plate were filled with standard solutions of fluorophore corresponding to the spectral region of interest. Solutions of TR were placed in the following wells: U1, V1: 3 mM, U2, V2: 300 uM, U3, V3: 30 uM, U4, V4: zero (DMSO), W1, X1: 3 uM, W2, X2: 900 nM, W3, X3: 300 nM, W4, X4: zero (DMSO). Assay Steps: Six uL of buffer were dispensed to 1536-well Greiner black plates. Compounds and dye standards (23 nL) were transferred via Kalypsys PinTool. The plates were incubated for 15 min at room temperature, and then read on ViewLux (Perkin-Elmer) High-throughput CCD imager using 547 nm and 618 nm excitation and emission filter set. Keywords: NIH Roadmap, MLSCN, MLI, MLSMR, qHTS, NCGC, Texas Red, Fluorescent Profiling.

SMILES	max dye-equivalent concentration
CCn1c(=N)n(CC(=O)c2cccc(OC)c2)c2ccccc21	inconclusive: 1.1 nM
COCCNC(=O)c1cnn2c(C(F)(F)F)cc(-c3ccc4c(c3)OCO4)nc12	inconclusive: 1.6 nM
CN(C)S(=O)(=O)c1cccc(C(=O)OCC(=O)N2c3ccccc3NC(=O)C2(C)C)c1	inconclusive: 1.2 nM
O=C(c1ccccc1)c1coc2ccc(O)c(Cl)c12	inconclusive: 1.1 nM
Cc1cc(C#N)c(C)n1-c1cc(C(F)(F)F)ccc1N1CCOCC1	inconclusive: 1.5 nM
CN1CCN(CCc2nc3cc(NC(=O)COc4ccccc4)ccc3n2C)CC1	inconclusive: 2.5 nM
Cc1ccc(-c2nnc(CSc3nnc(COc4ccccc4)n3-c3ccccc3)o2)cc1	inconclusive: 1.2 nM
Cn1c(=O)[nH]c(=O)c2c1nc(NCc1ccccc1)n2CC(O)c1ccccc1 (configuration not stated)	inactive
O=C(Nc1ccccc1Cl)NC1(C(=O)NCCCN2CCOCC2)CCCCC1	inconclusive: 1.4 nM
COCCNC(=O)CN1c2ccccc2CC1C (configuration not stated)	inconclusive: 2.2 nM
CC1=C(C(=O)Nc2ccccc2C)C(c2ccc(C)o2)N2C(=O)CSC2=N1 (configuration not stated)	inconclusive: 1.6 nM
CCOc1cc(C(=O)Nc2ccc(S(=O)(=O)Nc3cc(C)on3)cc2)cc(OCC)c1OCC	inconclusive: 2 nM
COc1ccccc1N(CN1CCCC1=O)C(=O)COc1ccccc1	inconclusive: 2.3 nM
Cc1ccc2[nH]c3c(=O)n(CCN4CCNCC4)cnc3c2c1	inconclusive: 1.3 nM
CCOc1ccccc1NC(=O)COc1cccc(-n2cnnn2)c1	inconclusive: 1.2 nM
COC(=O)[C@H](C)NC(=O)NC1CCCc2ccccc21 (some centres not stated)	inconclusive: 1.8 nM
Cc1ccc(C(C(=O)NC2CCCC2)N(Cc2cccs2)C(=O)CNC(=O)c2cccs2)o1 (configuration not stated)	inactive
CCOC(=O)CSc1nc2c(c(=O)[nH]c(=O)n2C)n1CCCc1ccccc1	inconclusive: 1.7 nM
CC(=O)c1c(C)[nH]c(C(=O)Nc2c(C)n(C)n(-c3ccccc3)c2=O)c1C	inconclusive: 1.6 nM
CCn1c(SCC(=O)Nc2ccccc2C(=O)OC)nnc1-c1ccoc1C	inconclusive: 1.5 nM
O=c1oc2ccccc2n1CCc1ccccc1	inconclusive: 2.8 nM

Of the compounds above, these have an aryl methoxy group:
SMILES	max dye-equivalent concentration
CCn1c(=N)n(CC(=O)c2cccc(OC)c2)c2ccccc21	inconclusive: 1.1 nM
COc1ccccc1N(CN1CCCC1=O)C(=O)COc1ccccc1	inconclusive: 2.3 nM

Continued:

SMILES	max dye-equivalent concentration
COc1cc(NC(=O)c2cc(OC)c(OC)c(OC)c2)c(OC)cc1NC(=O)CN1CCCCC1	inconclusive: 1.9 nM
CCc1ccc(OC)c(S(=O)(=O)NCCOc2ccccc2)c1	inconclusive: 1.8 nM
O=c1cc(C(F)(F)F)c2sc(N3CCCCC3)nc2[nH]1	inconclusive: 1.5 nM
Clc1ccc(C(c2nnnn2C2CCCCC2)N(Cc2cccnc2)Cc2ccco2)cc1 (configuration not stated)	inconclusive: 1.3 nM
CC(=O)N[C@@H](CC(=O)O)C(=O)O	inconclusive: 1.3 nM
Cc1cc(C)n2nc(SCC(=O)c3ccc[nH]3)nc2n1	inconclusive: 1.1 nM
CCOC(=O)c1cc(NC(=O)N2CCCc3ccccc32)c(C)nc1C	inconclusive: 1.1 nM
CCOc1ccccc1OCC(=O)Nc1ccc(N2CCCCC2)cc1	inconclusive: 1.9 nM
CCOC(=O)N1CCN(Cc2nc3c(c(=O)[nH]c(=O)n3C)n2CCCc2ccccc2)CC1	inconclusive: 1.1 nM
O=[N+]([O-])c1ccc(CSc2ncnc3c2ncn3[C@@H]2O[C@@H](CO)[C@@H](O)[C@H]2O)cc1	inactive
O=C(Cn1nnc(-c2ccncc2)n1)N1CCc2ccccc21	inconclusive: 1.3 nM
c1ccc(-n2c(SCc3ccncc3)nnc2-c2ccco2)cc1	inconclusive: 1.1 nM
CC(C)C(=O)N1CCN(CCN=CC2=C(O)CC(c3ccco3)CC2=O)CC1 (configuration not stated)	inconclusive: 1.4 nM
COc1ccc(S(=O)(=O)NCC2CCC(C(=O)NCc3ccco3)CC2)cc1 (configuration not stated)	inconclusive: 1.4 nM
c1ccc(-n2nnnc2-n2cnc3ccccc32)cc1	inactive
CCOC(=O)N1CCN(c2nc3ccccc3nc2C(C#N)S(=O)(=O)c2ccc(C)cc2)CC1 (configuration not stated)	inconclusive: 1.4 nM
CC(C(=O)NCc1ccccc1)N1C(=O)CN(C)C(=O)c2ccccc21 (configuration not stated)	inconclusive: 1.8 nM
O=C(O)c1ccccc1NCn1c(=S)sc2ccccc21	inactive
Cc1nc(C)c(-c2csc(Nc3cccnc3)n2)s1	inconclusive: 1.5 nM
Nc1nonc1-c1noc(N2CCCCC2)n1	inconclusive: 1.8 nM
N#Cc1nc(COc2ccc(-c3ccccc3)cc2)oc1NCCCN1CCOCC1	inconclusive: 1.1 nM
